Measured values published in PMC8133748.
Results are given in words; binding and its absence hold for the method and conditions named. Binding seen in cells or lysates may run through a third protein. Some results given as binding are weak or reduced against the parent protein; the word gives no strength.

Sequences of proteins named here, by UniProt entry; tags and fusion partners are left off.
UniProt Q8K2F0: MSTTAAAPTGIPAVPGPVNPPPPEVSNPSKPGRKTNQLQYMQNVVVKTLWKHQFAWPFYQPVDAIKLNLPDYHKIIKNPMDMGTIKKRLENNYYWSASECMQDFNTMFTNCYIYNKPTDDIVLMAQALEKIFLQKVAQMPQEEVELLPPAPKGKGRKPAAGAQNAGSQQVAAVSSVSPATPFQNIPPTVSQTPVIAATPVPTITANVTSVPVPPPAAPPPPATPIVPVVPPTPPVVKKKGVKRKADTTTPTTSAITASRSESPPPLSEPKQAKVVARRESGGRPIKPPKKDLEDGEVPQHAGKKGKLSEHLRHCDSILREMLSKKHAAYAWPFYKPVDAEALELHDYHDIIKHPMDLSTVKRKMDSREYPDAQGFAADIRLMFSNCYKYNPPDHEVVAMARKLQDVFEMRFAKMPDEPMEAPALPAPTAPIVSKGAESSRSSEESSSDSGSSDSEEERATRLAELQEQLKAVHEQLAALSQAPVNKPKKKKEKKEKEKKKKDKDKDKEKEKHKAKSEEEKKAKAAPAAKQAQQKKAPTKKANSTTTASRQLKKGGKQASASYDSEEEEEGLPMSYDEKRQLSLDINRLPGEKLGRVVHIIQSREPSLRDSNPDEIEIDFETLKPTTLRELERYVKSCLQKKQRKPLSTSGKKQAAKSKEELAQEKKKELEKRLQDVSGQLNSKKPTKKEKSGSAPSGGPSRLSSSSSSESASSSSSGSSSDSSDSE
UniProt Q7JJ13: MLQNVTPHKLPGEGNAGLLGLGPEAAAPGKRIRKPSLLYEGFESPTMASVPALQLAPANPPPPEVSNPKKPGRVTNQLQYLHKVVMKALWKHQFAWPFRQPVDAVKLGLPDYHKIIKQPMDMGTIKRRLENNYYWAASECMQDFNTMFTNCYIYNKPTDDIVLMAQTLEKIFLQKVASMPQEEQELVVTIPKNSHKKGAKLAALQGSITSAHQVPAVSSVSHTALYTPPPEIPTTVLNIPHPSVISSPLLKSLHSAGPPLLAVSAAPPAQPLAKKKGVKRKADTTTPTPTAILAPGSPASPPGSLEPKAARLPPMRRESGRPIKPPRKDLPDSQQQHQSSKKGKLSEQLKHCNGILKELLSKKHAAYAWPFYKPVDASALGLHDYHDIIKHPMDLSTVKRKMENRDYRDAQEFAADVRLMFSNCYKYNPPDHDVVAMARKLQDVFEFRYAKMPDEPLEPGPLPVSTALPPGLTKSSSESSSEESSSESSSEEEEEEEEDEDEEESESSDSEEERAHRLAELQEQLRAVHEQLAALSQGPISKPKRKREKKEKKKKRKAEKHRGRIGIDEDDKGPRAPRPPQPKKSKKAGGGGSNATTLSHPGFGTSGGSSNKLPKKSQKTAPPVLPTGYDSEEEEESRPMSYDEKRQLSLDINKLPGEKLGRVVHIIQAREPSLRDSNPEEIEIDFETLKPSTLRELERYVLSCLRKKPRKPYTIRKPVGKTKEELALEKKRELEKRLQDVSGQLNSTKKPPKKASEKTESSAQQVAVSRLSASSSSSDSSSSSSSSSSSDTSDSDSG

Legend:
[1] = target: BRD3 (mouse (endogenous in mouse cortical neurons)) (UniProt Q8K2F0); experiment: co-IP; endogenous proteins; nuclear extracts of unstimulated (1 uM TTX overnight) or KCl-depolarised (55 mM, 30 min) mouse cortical neurons; extracted at 600 mM NaCl, diluted to 100 mM NaCl; antibody overnight at 4 C, Protein A/G PLUS Agarose; immunoblot
[2] = target: BRD2 (mouse (endogenous in mouse cortical neurons)) (UniProt Q7JJ13); experiment: as above

| Substance | binding [1] | binding [2] |
| --- | --- | --- |
| BRD2 (from UniProt Q7JJ13 1-798) | binds | – |
| BRD3 (from UniProt Q8K2F0 1-726) | – | binds |
